Test results: publication PMC4971506
The exact form of at least one protein or probe is not confirmed.

Sequences of proteins named here, by UniProt entry; tags and fusion partners are left off. A change or cut given only in a name is not applied to a line headed by its entry.
UniProt P03004: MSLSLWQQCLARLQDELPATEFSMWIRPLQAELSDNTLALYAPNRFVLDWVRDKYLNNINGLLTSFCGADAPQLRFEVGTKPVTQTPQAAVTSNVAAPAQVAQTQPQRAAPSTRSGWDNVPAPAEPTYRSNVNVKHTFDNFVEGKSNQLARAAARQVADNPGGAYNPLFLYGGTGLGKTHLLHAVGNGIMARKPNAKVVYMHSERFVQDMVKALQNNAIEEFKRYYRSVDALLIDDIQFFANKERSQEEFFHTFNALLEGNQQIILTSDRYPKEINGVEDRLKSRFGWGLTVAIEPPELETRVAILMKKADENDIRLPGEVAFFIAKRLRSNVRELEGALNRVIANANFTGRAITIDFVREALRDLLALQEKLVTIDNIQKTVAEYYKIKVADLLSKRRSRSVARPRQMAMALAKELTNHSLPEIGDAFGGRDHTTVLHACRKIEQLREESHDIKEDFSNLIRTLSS

Target: DnaA (Escherichia coli (gene amplified from MG1655)) (UniProt P03004)
Assay: EMSA
Settings: 2 mM ATP, complex at as low as 0.16 pmol DnaA, EMSA: DnaA with 5'-FAM-oriC, 5 min at 20 C, 5% native PAGE, recombinant protein, protein details: 6xHis (pET22b), label: 5'-FAM (both primers printed with 5'FAM), probe letters rebuilt from the primers and the genome

Q: Does “CCCGGGCCGTGGATTCTACTCAACTTTGTCGGCTTGAGAAAGACCCGGGATCCTGGGTATTAAAAAGAAGATCTATTTATTTAGAGATCTGTTCTATTGTGATCTCTTATTAGGATCGCACTGCCCTGTGGATAACAAGGATCCGGCTTTTAAGATCAACAACCTGGAAAGGATCATTAACTGTGAATGATCGGTGATCCTGGACCGTATAAGCTGGGATCAGAATGAGGGGTTATACACAACTCAAAAACTGAACAACCGTTGTTCCTTGGATAACTACCGGTTGATCCAAGCTTCCTGACAGAGTTATCCACAGTAGATCGCACGATCTGTATACTTATTTGAGTAAATTAATCCACGATCCCAGCCATTCTTCTGCCGGATCTTCCGGAATGTCGTGATCAAGAATGTTGATCTTCAGTGTTTCGCCTGTCTGTTTTGCACCGGAATCTTTGAGTTCTGCCTCGAG (double strand) [5'-FAM-oriC fragment]” bind?
A: Result: binds
